Source: PubChem BioAssay AID1259254 (NCATS, 2017)

Test: 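Genome-wide screen for genes that prevent DNA re-replication in cancer cells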 (primary screen)
Cell system: human HCT116 colorectal cancer cells
Knock-down reagent: single siRNA against human genes
Duration: 3 days
Measurement: 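Nuclei stained with Hoechst and imaged; cell-cycle phase assigned by DNA content; G2 share scaled per plate, non-targeting siRNA 0%, GMNN siRNA 100%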
Scale: G2 robust z-score and G2 cells, % of GMNN control: higher = more G2 cells, more excess DNA replication; raw share of cells in G2: higher = larger share of cells with G2 DNA content
Rule for the call: 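An siRNA counts as active if its G2 robust z-score lies at least 5 MADs above the screen median; here such calls match roughly 38% of GMNN control or more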
The whole screen tested about 59,000 reagents; below is a random part of them. Of all reagents, about 1,550 (2.6%) are marked active. 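G2 share is only a proxy for re-replication; each gene was hit by three separate siRNAs, and active genes were retested.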 Raw values vary from plate to plate and are shown uncorrected. The numbers tell different reagents against one gene apart. Not stated in the record: the amount of reagent.

| Target gene | reagent | G2 robust z-score | G2 cells, % of GMNN control | raw share of cells in G2 (%) | Outcome |
| --- | --- | --- | --- | --- | --- |
| TLR2 | 1 | 2.52 | 20.7 | 12.8 | inactive |
| TLR2 | 2 | 3.26 | 25.9 | 14.5 | inactive |
| TLR2 | 3 | 5.25 | 39.9 | 18.3 | active |
| SMR3A | 1 | -0.0743 | 2.44 | 5.47 | inactive |
| SMR3A | 2 | 2.73 | 22.2 | 10.3 | inactive |
| SMR3A | 3 | 0.666 | 7.65 | 6.78 | inactive |
| OR10A3 | 1 | -0.989 | -3.99 | 2.91 | inactive |
| OR10A3 | 2 | 0.329 | 5.28 | 6.23 | inactive |
| OR10A3 | 3 | -0.372 | 0.351 | 3.42 | inactive |
| ZNF331 | 1 | -0.67 | -1.75 | 2.18 | inactive |
| ZNF331 | 2 | 1.21 | 11.5 | 11.1 | inactive |
| ZNF331 | 3 | 0.102 | 3.69 | 4.79 | inactive |
| SRSF10 | 1 | -0.65 | -1.6 | 5 | inactive |
| SRSF10 | 2 | 2.78 | 22.5 | 15.3 | inactive |
| SRSF10 | 3 | -0.239 | 1.29 | 4.26 | inactive |
| KAZN | 1 | 0.115 | 3.78 | 4.59 | inactive |
| KAZN | 2 | 4.26 | 32.9 | 18.4 | inactive |
| KAZN | 3 | 2.09 | 17.7 | 11.9 | inactive |
| KAZN | 4 | 0.497 | 6.47 | 6.81 | inactive |
| KAZN | 5 | -0.298 | 0.872 | 4.13 | inactive |
| KAZN | 6 | 1.52 | 13.7 | 8.95 | inactive |
| PINX1 | 1 | -0.399 | 0.162 | 4.4 | inactive |
| PINX1 | 2 | -0.311 | 0.781 | 6.77 | inactive |
| PINX1 | 3 | 2.3 | 19.2 | 11.3 | inactive |
| SSR4 | 1 | -0.258 | 1.15 | 5.64 | inactive |
| SSR4 | 2 | -0.868 | -3.14 | 2.65 | inactive |
| SSR4 | 3 | -0.674 | -1.78 | 2.72 | inactive |
| FOXP4 | 1 | 0.128 | 3.87 | 5.94 | inactive |
| FOXP4 | 2 | 2.27 | 19 | 13.1 | inactive |
| FOXP4 | 3 | 2.22 | 18.6 | 14.3 | inactive |
| KDM4A | 1 | 2.1 | 17.7 | 13.3 | inactive |
| KDM4A | 2 | 2.14 | 18 | 11.5 | inactive |
| KDM4A | 3 | 6.1 | 45.9 | 20.1 | active |
| AFF2 | 1 | -1.01 | -4.16 | 3.35 | inactive |
| AFF2 | 2 | -0.617 | -1.38 | 3.58 | inactive |
| AFF2 | 3 | -0.496 | -0.52 | 3.32 | inactive |
| CYB561D1 | 1 | 0.741 | 8.18 | 6.62 | inactive |
| CYB561D1 | 2 | 0.719 | 8.03 | 6.15 | inactive |
| CYB561D1 | 3 | -0.631 | -1.47 | 2.82 | inactive |
| TTLL10 | 1 | -0.472 | -0.351 | 5.79 | inactive |
| TTLL10 | 2 | 2.36 | 19.5 | 11.9 | inactive |
| TTLL10 | 3 | 1.14 | 11 | 9.32 | inactive |
| UBA6 | 1 | -0.795 | -2.63 | 5.28 | inactive |
| UBA6 | 2 | -0.0866 | 2.36 | 5.28 | inactive |
| UBA6 | 3 | -0.85 | -3.01 | 3.08 | inactive |
| DRICH1 | 1 | -0.734 | -2.2 | 3.01 | inactive |
| DRICH1 | 2 | -1.12 | -4.94 | 2.68 | inactive |
| DRICH1 | 3 | 0.842 | 8.89 | 6.06 | inactive |
| C7 | 1 | -0.663 | -1.7 | 4.51 | inactive |
| C7 | 2 | 0.636 | 7.44 | 6.81 | inactive |
| C7 | 3 | -0.589 | -1.18 | 3.06 | inactive |
| MYH4 | 1 | 1.62 | 14.3 | 11.2 | inactive |
| MYH4 | 2 | -0.139 | 1.99 | 6.13 | inactive |
| MYH4 | 3 | 0.483 | 6.37 | 5.3 | inactive |
| EBI3 | 1 | -0.542 | -0.844 | 5.33 | inactive |
| EBI3 | 2 | 0.507 | 6.53 | 5.95 | inactive |
| EBI3 | 3 | 1.45 | 13.2 | 11.7 | inactive |
| MKS1 | 1 | 1.53 | 13.8 | 8.53 | inactive |
| MKS1 | 2 | 0.756 | 8.29 | 7.76 | inactive |
| MKS1 | 3 | -0.771 | -2.46 | 2.38 | inactive |
| HSPH1 | 1 | -0.43 | -0.0547 | 3.51 | inactive |
| HSPH1 | 2 | -1.16 | -5.16 | 3.69 | inactive |
| HSPH1 | 3 | 0.193 | 4.33 | 5.15 | inactive |
| MRPS18C | 1 | 0.884 | 9.19 | 6.75 | inactive |
| MRPS18C | 2 | 1 | 10 | 8.06 | inactive |
| MRPS18C | 3 | -1.16 | -5.22 | 1.54 | inactive |
| MACIR | 1 | -0.398 | 0.169 | 4.16 | inactive |
| MACIR | 2 | -0.219 | 1.43 | 3.45 | inactive |
| MACIR | 3 | -0.391 | 0.217 | 2.99 | inactive |
